Experimental data: publication PMC10835888
Results are given in words; binding and its absence hold for the method and conditions named. Binding seen in cells or lysates may run through a third protein. Some entries that bind do so weakly or less than the wild type. For some of these results: Sequences can lack the tags named with a protein. Blank lines part the entries; values can stand above or below the binder they belong to.

Amino acid sequences for entries named in this document (tags omitted).
UniProt Q14137: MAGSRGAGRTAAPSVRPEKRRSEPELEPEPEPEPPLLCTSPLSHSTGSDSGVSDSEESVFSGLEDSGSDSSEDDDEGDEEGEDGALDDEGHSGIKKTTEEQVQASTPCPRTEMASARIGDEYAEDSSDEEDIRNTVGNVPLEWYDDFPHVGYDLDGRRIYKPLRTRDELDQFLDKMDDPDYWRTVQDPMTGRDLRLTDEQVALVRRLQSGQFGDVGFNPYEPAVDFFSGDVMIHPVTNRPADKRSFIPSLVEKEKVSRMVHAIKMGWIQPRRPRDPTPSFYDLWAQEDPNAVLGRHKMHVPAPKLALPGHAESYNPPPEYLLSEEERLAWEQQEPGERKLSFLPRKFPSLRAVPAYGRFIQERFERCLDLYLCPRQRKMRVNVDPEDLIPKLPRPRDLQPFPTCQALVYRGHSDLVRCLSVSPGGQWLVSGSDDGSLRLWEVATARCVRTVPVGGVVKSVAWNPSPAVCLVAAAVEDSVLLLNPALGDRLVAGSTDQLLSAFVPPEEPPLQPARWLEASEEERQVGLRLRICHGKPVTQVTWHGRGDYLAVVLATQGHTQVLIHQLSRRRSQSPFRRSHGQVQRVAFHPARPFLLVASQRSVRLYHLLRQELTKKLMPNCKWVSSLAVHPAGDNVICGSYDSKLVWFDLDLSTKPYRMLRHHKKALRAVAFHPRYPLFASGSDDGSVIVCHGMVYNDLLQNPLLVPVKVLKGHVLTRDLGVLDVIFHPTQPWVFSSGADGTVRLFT

Experiments:
[1] = molecular target: T1, eukaryotic translation initiation factor 3 subunit a (eIF3a) (human (endogenous in HepG2, Huh7)), Q14152; assay: co-IP; lysates of HepG2 and Huh7 cells in RIPA buffer, pre-cleared; anti-FLAG, anti-HA, anti-eIF3a or anti-eIF3b antibody (normal IgG as control), Protein A/G magnetic beads overnight at 4 °C; washes with 10 mM Tris-HCl pH 7.5, 1 mM EDTA, 150 mM NaCl, 1% Triton-X; Western blotting; which antibody precipitated in which panel is not stated; conditions: remark: other sources report otherwise
[2] = molecular target: eIF3b (human (endogenous in HepG2, Huh7)), P55884; assay: as above; conditions: remark: other sources report otherwise
[3] = molecular target: eIF3b (human (endogenous in HepG2, Huh7)), P55884; assay: proximity ligation; HepG2 cells, fixed with 4% paraformaldehyde and permeabilised; Duolink; mouse anti-Flag with rabbit anti-eIF3a, or rabbit anti-METTL16 with mouse anti-eIF3b; conditions: remark: other sources report otherwise
[4] = molecular target: T1, eukaryotic translation initiation …; assay: as above; conditions: remark: other sources report otherwise
[5] = molecular target: T2, DDX47 with a HA tag at the N terminus (human) (UniProt Q9H0S4); assay: co-IP; lysates of HepG2 and Huh7 cells in RIPA buffer, pre-cleared; anti-FLAG, anti-HA, anti-eIF3a or anti-eIF3b antibody (normal IgG as control), Protein A/G magnetic beads overnight at 4 °C; washes with 10 mM Tris-HCl pH 7.5, 1 mM EDTA, 150 mM NaCl, 1% Triton-X; Western blotting; which antibody precipitated in which panel is not stated
T2 sequence: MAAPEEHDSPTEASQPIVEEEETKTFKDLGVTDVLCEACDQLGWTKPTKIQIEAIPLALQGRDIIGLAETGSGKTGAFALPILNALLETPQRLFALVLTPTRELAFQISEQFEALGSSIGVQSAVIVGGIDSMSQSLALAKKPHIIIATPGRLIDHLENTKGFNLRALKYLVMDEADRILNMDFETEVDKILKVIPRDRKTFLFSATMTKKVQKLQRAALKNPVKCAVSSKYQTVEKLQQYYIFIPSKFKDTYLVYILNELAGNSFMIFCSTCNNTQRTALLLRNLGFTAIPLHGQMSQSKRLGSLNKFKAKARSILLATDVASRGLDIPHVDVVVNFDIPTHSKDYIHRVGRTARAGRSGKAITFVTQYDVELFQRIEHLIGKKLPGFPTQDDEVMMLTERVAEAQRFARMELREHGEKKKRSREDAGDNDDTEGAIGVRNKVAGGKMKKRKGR

[6] = molecular target: T3, DDX49 with a HA tag at the N terminus (human) (UniProt Q9Y6V7); assay: as above
T3 sequence: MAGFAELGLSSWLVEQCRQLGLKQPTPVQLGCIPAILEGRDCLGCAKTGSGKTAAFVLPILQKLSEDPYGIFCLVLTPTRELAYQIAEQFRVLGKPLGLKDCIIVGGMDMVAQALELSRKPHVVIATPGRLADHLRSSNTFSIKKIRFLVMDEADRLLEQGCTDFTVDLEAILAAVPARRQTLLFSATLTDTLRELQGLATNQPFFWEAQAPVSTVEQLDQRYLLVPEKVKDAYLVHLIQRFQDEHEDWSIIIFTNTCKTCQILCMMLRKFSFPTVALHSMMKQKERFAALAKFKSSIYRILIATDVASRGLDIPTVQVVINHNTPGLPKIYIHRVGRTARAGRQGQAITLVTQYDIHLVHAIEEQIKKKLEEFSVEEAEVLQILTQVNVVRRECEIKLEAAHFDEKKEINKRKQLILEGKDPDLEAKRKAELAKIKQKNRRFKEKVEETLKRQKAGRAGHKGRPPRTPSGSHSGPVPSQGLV

[7] = molecular target: BOP1 with a HA tag at the N terminus (human) (UniProt Q14137); assay: as above

binding [1]: binds
binding [2]: binds
binding [3]: binds
B1: Methyltransferase 16 (METTL16), Q86W50 1-562 (enzyme)
chain: MALSKSMHARNRYKDKPPDFAYLASKYPDFKQHVQINLNGRVSLNFKDPEAVRALTCTLLREDFGLSIDIPLERLIPTVPLRLNYIHWVEDLIGHQDSDKSTLRRGIDIGTGASCIYPLLGATLNGWYFLATEVDDMCFNYAKKNVEQNNLSDLIKVVKVPQKTLLMDALKEESEIIYDFCMCNPPFFANQLEAKGVNSRNPRRPPPSSVNTGGITEIMAEGGELEFVKRIIHDSLQLKKRLRWYSCMLGKKCSLAPLKEELRIQGVPKVTYTEFCQGRTMRWALAWSFYDDVTVPSPPSKRRKLEKPRKPITFVVLASVMKELSLKASPLRSETAEGIVVVTTWIEKILTDLKVQHKRVPCGKEEVSLFLTAIENSWIHLRRKKRERVRQLREVPRAPEDVIQALEEKKPTPKESGNSQELARGPQERTPCGPALREGEAAAVEGPCPSQESLSQEENPEPTEDERSEEKGGVEVLESCQGSSNGAQDQEASEQFGSPVAERGKRLPGVAGQYLFKCLINVKKEVDDALVEMHWVEGQNRDLMNQLCTYIRNQIFRLVAVN

binding [4]: binds
B2: Flag-tagged METTL16, Q86W50 1-562 (enzyme)
chain: MALSKSMHARNRYKDKPPDFAYLASKYPDFKQHVQINLNGRVSLNFKDPEAVRALTCTLLREDFGLSIDIPLERLIPTVPLRLNYIHWVEDLIGHQDSDKSTLRRGIDIGTGASCIYPLLGATLNGWYFLATEVDDMCFNYAKKNVEQNNLSDLIKVVKVPQKTLLMDALKEESEIIYDFCMCNPPFFANQLEAKGVNSRNPRRPPPSSVNTGGITEIMAEGGELEFVKRIIHDSLQLKKRLRWYSCMLGKKCSLAPLKEELRIQGVPKVTYTEFCQGRTMRWALAWSFYDDVTVPSPPSKRRKLEKPRKPITFVVLASVMKELSLKASPLRSETAEGIVVVTTWIEKILTDLKVQHKRVPCGKEEVSLFLTAIENSWIHLRRKKRERVRQLREVPRAPEDVIQALEEKKPTPKESGNSQELARGPQERTPCGPALREGEAAAVEGPCPSQESLSQEENPEPTEDERSEEKGGVEVLESCQGSSNGAQDQEASEQFGSPVAERGKRLPGVAGQYLFKCLINVKKEVDDALVEMHWVEGQNRDLMNQLCTYIRNQIFRLVAVN

B3: Methyltransferase 16 (METTL16) (enzyme, UniProt Q86W50 1-562)
chain: MALSKSMHARNRYKDKPPDFAYLASKYPDFKQHVQINLNGRVSLNFKDPEAVRALTCTLLREDFGLSIDIPLERLIPTVPLRLNYIHWVEDLIGHQDSDKSTLRRGIDIGTGASCIYPLLGATLNGWYFLATEVDDMCFNYAKKNVEQNNLSDLIKVVKVPQKTLLMDALKEESEIIYDFCMCNPPFFANQLEAKGVNSRNPRRPPPSSVNTGGITEIMAEGGELEFVKRIIHDSLQLKKRLRWYSCMLGKKCSLAPLKEELRIQGVPKVTYTEFCQGRTMRWALAWSFYDDVTVPSPPSKRRKLEKPRKPITFVVLASVMKELSLKASPLRSETAEGIVVVTTWIEKILTDLKVQHKRVPCGKEEVSLFLTAIENSWIHLRRKKRERVRQLREVPRAPEDVIQALEEKKPTPKESGNSQELARGPQERTPCGPALREGEAAAVEGPCPSQESLSQEENPEPTEDERSEEKGGVEVLESCQGSSNGAQDQEASEQFGSPVAERGKRLPGVAGQYLFKCLINVKKEVDDALVEMHWVEGQNRDLMNQLCTYIRNQIFRLVAVN
binding [5]: binds
binding [6]: binds
binding [7]: binds
